Measurements as given in article PMC7819943, “Rice protein-binding microarrays: a tool to detect cis-acting elements near promoter regions in rice”.
The list shows a part of the results.

Sequences of proteins named here, by UniProt entry; tags and fusion partners are left off.
UniProt Q0JBA9, entry or part of it: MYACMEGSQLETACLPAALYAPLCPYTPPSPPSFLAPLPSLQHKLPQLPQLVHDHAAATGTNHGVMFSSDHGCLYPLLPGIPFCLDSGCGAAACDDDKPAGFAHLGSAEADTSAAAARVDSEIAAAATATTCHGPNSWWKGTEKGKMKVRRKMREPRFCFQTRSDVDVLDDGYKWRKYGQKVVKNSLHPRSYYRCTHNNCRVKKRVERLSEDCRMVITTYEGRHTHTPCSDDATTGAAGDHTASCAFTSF

Molecular target: OsWRKY34 (Oryza sativa, UniProt Q0JBA9 1-250)
Assay: protein-binding microarray (RPBM); PBS, 2% BSA, 51.3 ng/ul salmon testes DNA, 50 uM zinc acetate, 200 nM TF, 25 C, 1 h; high values mean tight binding
Conditions: protein: recombinant; tags: N-terminal polyhistidine and DsRed monomer fusion (pET32a); label: CyDye5-dUTP incorporated in the synthesized complementary strand; 3' TTTTT single-stranded linker to array surface; dsDNA, one strand shown
Summary of the method: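 Transcription factors, each fused N-terminally to a polyhistidine tag and DsRed, were expressed in E. coli BL21-CodonPlus and purified on Ni–NTA. A custom Agilent array was made double-stranded by primer extension with Cy5-dUTP and blocked with 2% BSA. It was incubated with 200 nM protein in PBS, 2% BSA, salmon testes DNA and 50 µM zinc acetate at 25 °C for 1 h, then washed. The binding signal is per-feature fluorescence intensity (arbitrary units) read on an Axon 4000B scanner.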

Point of comparison: “TCAAGCCCATTCCCATTCACCATCGCATCACACAGGCACACGGAGTCACCTAGTGCAG”, binding signal 8180 fluorescence intensity (a.u.). Against it:
- AAAAATCATAACGAGGTACATAATGGTCTGGGCTATCCTGCGGAGTCACCTAGTGCAG — higher, 9310 fluorescence intensity (a.u.)
- CTTTTCCTTTTTATCGTTTTTCTGTTAGGAGGTTTGATCACGGAGTCACCTAGTGCAG — higher, 9240 fluorescence intensity (a.u.)
- TGGTTGTGGGACTGTGGGGCCGGGTCAAGTCAAGTCAATGCGGAGTCACCTAGTGCAG — higher, 11600 fluorescence intensity (a.u.)
- CAGGGTTATATAATGGGTCTTATTAATAGTCTACGTTTAACGGAGTCACCTAGTGCAG — higher, 8590 fluorescence intensity (a.u.)
- TTCAGTTTGGTGTTAAGCTCTCTTTGTCTCGGCCTCTGAACGGAGTCACCTAGTGCAG — higher, 8270 fluorescence intensity (a.u.)
- CGAGGTCGTTTGGTTTTCTTTTCCTTTTTGGTTGTGTGTTCGGAGTCACCTAGTGCAG — higher, 9070 fluorescence intensity (a.u.)
- GCAATCTGTTCAATTGGTTTTTTTTGTTTACATTTAATACCGGAGTCACCTAGTGCAG — higher, 8300 fluorescence intensity (a.u.)
- TTTTTGGCTGGTCAAATTTGGCTAGTGTGGGGAGGGTTTTCGGAGTCACCTAGTGCAG — higher, 23600 fluorescence intensity (a.u.)
- TGTTATTGTTTTTCCTTGAGCTCGTGACAAGTGTCTTTGTCGGAGTCACCTAGTGCAG — higher, 10200 fluorescence intensity (a.u.)
- ATATACTCCTACTACATACAACTTCTTTCTTTTCCATCGTCGGAGTCACCTAGTGCAG — higher, 9900 fluorescence intensity (a.u.)
- CGCCGCCGCCGCGTTGACCTCCGCCACGGTGGCCGCATCCCGGAGTCACCTAGTGCAG — higher, 9510 fluorescence intensity (a.u.)
- ATCATCGTTCACCCGCATTTCATCTACTTCAATCTACATTCGGAGTCACCTAGTGCAG — higher, 9810 fluorescence intensity (a.u.)
- AATGGCGCGCGAGTCTTATACCCTATGATCCCTCGTCACCCGGAGTCACCTAGTGCAG — lower, 8170 fluorescence intensity (a.u.)
- TCAAAACGGCCCACTCGCCGCCCGCCACGTGTCCGACCCGCGGAGTCACCTAGTGCAG — higher, 8920 fluorescence intensity (a.u.)
- CAGTTTTTGAGGTAGAAGGGTATCATTGTAATTTTGCATCCGGAGTCACCTAGTGCAG — higher, 8850 fluorescence intensity (a.u.)
- CATGGTGCCTCTTTTGAATTCCCTCCATATTGAACATCTACGGAGTCACCTAGTGCAG — higher, 8830 fluorescence intensity (a.u.)
- GAGATAATAATTTCTCGCGCTCCTTGACTGCTTCCTTTCTCGGAGTCACCTAGTGCAG — lower, 8150 fluorescence intensity (a.u.)
- GGCCAAAGGATTCAGTCGTCGTGGTTTTGCCGCAAAACTCCGGAGTCACCTAGTGCAG — lower, 8120 fluorescence intensity (a.u.)
- CAGAGCACACGCCCCGAACCATATGCCAACCGCCCAAACACGGAGTCACCTAGTGCAG — higher, 11900 fluorescence intensity (a.u.)
- AGATGCTCTTTGCCATGCTACTACTAGTAGTTGCTTTTGCCGGAGTCACCTAGTGCAG — higher, 9180 fluorescence intensity (a.u.)
- CCGCGCCATCTCCACCGTCCATTCTCCATCCGAACCGCGCCGGAGTCACCTAGTGCAG — higher, 12800 fluorescence intensity (a.u.)
- ACAAGGGAGCGACGGAGCGCGCGCGAGTACCGAGTTTGACCGGAGTCACCTAGTGCAG — higher, 8870 fluorescence intensity (a.u.)
